In PubChem BioAssay AID248 (DTP/NCI, 2004):
The list is a part of this screen's results and no random one: it gathers tests that were run many times, whatever their T/C, doses with no T/C, and many T/C values between a quarter and a half above the control. Other doses and runs of a compound stand elsewhere. T/C is the treated group as % of the vehicle group. Some doses have a count of surviving animals in place of a T/C: the source holds a T/C of zero for them, seemingly a mark for toxic or unscored doses. Some survivor counts are full or nearly so, which does not show that the dose was tolerated: survival well below the control is almost never listed, so the zero probably covers shortened survival too. Counts of survivors are from the toxicity check (mostly the fifth day) where no day follows; animals may have died later. Schedules are NCI's codes, read here as Q, the interval in days (D) or hours (H), X, the number of doses. Where survival is the endpoint, this PubChem deposit counts one and a half times the control or more as active, and values a quarter to a half above the control carry no call in these data; other NCI protocols may use other cut-offs. Some T/C values are followed by the survivors on the day toxicity was checked, most often the fifth; without a count, all were alive then. Some entries were tested several times; the values are given in rising order. Brackets with × say how often a value occurs here. Some schedules carry Z or #; the key to these is not given.

System: L1210 leukemia ip in BDF1 mice, survival T/C
Assay: NCI In Vivo Anticancer Drug Screen. Data for tumor model L1210 Leukemia (intraperitoneal) in B6D2F1 (BDF1) mice
Details: T/C endpoint: mean survival time, higher T/C = longer survival

Compound: N[C@@H](Cc1ccc(N(CCCl)CCCl)cc1)C(=O)O
- T/C (dose: 0.25 mg/kg/injection, schedule: Q03HX024 (ip), vehicle: saline): 128 % of control [9 of 10 alive]
- T/C (dose: 0.5 mg/kg/injection, schedule: Q03HX024 (ip), vehicle: saline): 127 % of control
- T/C (dose: 0.8 mg/kg/injection, schedule: Q01DX015 (ip), vehicle: carboxymethylcellulose (CMC)): 134 % of control
- T/C (dose: 1.0 mg/kg/injection, schedule: Q01DX009 (ip), vehicle: Klucel (hydroxypropylcellulose) (HPC)): 128, 131, 138, 147 % of control
- T/C (dose: 1.0 mg/kg/injection, schedule: Q01DX009 (ip), vehicle: other): 141 % of control
- T/C (dose: 1.0 mg/kg/injection, schedule: Q01DX009 (ip), vehicle: saline): 134 % of control
- T/C (dose: 1.0 mg/kg/injection, schedule: Q01DX009 (sc), vehicle: saline): 125 % of control
- T/C (dose: 1.0 mg/kg/injection, schedule: Q01DX Z (ip), vehicle: carboxymethylcellulose (CMC)): 148 % of control
- T/C (dose: 1.0 mg/kg/injection, schedule: Q03DX Z (ip), vehicle: carboxymethylcellulose (CMC)): 146 % of control
- T/C (dose: 1.0 mg/kg/injection, schedule: Q03HX016 (ip), vehicle: saline): 138 % of control
- T/C (dose: 1.0 mg/kg/injection, schedule: Q03HX024 (ip), vehicle: saline): 140 % of control
- T/C (dose: 1.56 mg/kg/injection, schedule: Q01DX001 (ip), vehicle: carboxymethylcellulose (CMC)): 125 % of control
- T/C (dose: 1.6 mg/kg/injection, schedule: Q01DX015 (ip), vehicle: carboxymethylcellulose (CMC)): 143 % of control
- T/C (dose: 2.0 mg/kg/injection, schedule: Q01DX005 (ip), vehicle: saline): 130 % of control
- T/C (dose: 2.0 mg/kg/injection, schedule: Q01DX009 (ip), vehicle: Klucel (hydroxypropylcellulose) (HPC)): 138 (2×), 167, 236 % of control
- T/C (dose: 2.0 mg/kg/injection, schedule: Q01DX009 (oral), vehicle: saline): 129 % of control [9 of 10 alive]
- T/C (dose: 2.0 mg/kg/injection, schedule: Q01DX009 (sc), vehicle: saline): 130 % of control
- T/C (dose: 2.0 mg/kg/injection, schedule: Q04DX003 (ip), vehicle: saline): 127 % of control
- T/C (dose: 2.25 mg/kg/injection, schedule: Q01DX001 (ip), vehicle: carboxymethylcellulose (CMC)): 136 and 142 % of control
- T/C (dose: 3.12 mg/kg/injection, schedule: Q01DX001 (ip), vehicle: carboxymethylcellulose (CMC)): 132 % of control
- T/C (dose: 3.5 mg/kg/injection, schedule: Q04DX002 (ip), vehicle: Klucel (hydroxypropylcellulose) (HPC)): 123, 124, 128, 141 % of control
- T/C (dose: 3.6 mg/kg/injection, schedule: Q01DX001 (ip), vehicle: saline): 136 and 140 % of control
- T/C (dose: 3.6 mg/kg/injection, schedule: Q04DX003 (ip), vehicle: saline): 145 % of control
- T/C (dose: 4.0 mg/kg/injection, schedule: Q01DX001 (ip), vehicle: carboxymethylcellulose (CMC)): 133 % of control
- T/C (dose: 4.0 mg/kg/injection, schedule: Q01DX005 (ip), vehicle: saline): 148 % of control [9 of 10 alive]
- T/C (dose: 4.0 mg/kg/injection, schedule: Q01DX009 (ip), vehicle: Klucel (hydroxypropylcellulose) (HPC)): 149, 175, 208, 237 % of control [2 of 3 alive]
- T/C (dose: 4.0 mg/kg/injection, schedule: Q01DX Z (ip), vehicle: carboxymethylcellulose (CMC)): 138 % of control
- T/C (dose: 4.0 mg/kg/injection, schedule: Q04DX003 (ip), vehicle: saline): 144 % of control
- T/C (dose: 4.0 mg/kg/injection, schedule: Q08DX002 (ip), vehicle: saline): 138 % of control
- survivor count (dose: 5.33 mg/kg/injection, schedule: Q03HX024 (ip), vehicle: other): 5 of 6
- T/C (dose: 6.0 mg/kg/injection, schedule: Q01DX001 (ip), vehicle: Klucel (hydroxypropylcellulose) (HPC)): 135 % of control
- T/C (dose: 6.0 mg/kg/injection, schedule: Q01DX001 (ip), vehicle: carboxymethylcellulose (CMC)): 144 % of control
- T/C (dose: 6.0 mg/kg/injection, schedule: Q01DX Z (oral), vehicle: carboxymethylcellulose (CMC)): 146 % of control
- T/C (dose: 6.25 mg/kg/injection, schedule: Q01DX001 (ip), vehicle: saline): 126 % of control
- T/C (dose: 7.0 mg/kg/injection, schedule: Q04DX002 (ip), vehicle: Klucel (hydroxypropylcellulose) (HPC)): 158, 175, 188 % of control (2×)
- T/C (dose: 8.0 mg/kg/injection, schedule: Q01DX001 (ip), vehicle: saline): 132 % of control
- survivor count (dose: 8.0 mg/kg/injection, schedule: Q01DX009 (ip), vehicle: saline): 9 of 10
- T/C (dose: 8.0 mg/kg/injection, schedule: Q01DX Z (ip), vehicle: carboxymethylcellulose (CMC)): 98, 100, 110, 118 % of control
- survivor count (dose: 8.0 mg/kg/injection, schedule: Q03HX008 (ip), vehicle: saline): 7 of 10
- survivor count (dose: 8.0 mg/kg/injection, schedule: Q03HX016 (ip), vehicle: saline): 8 of 10
